Results taken from PMC10917059.
No constants are given. Whether binding was seen depends on the method and setting. Binding seen in cells or lysates may run through a third protein. A result given as binding can be weak or reduced; the word gives no strength.

By UniProt entry, the sequences of proteins in these tests, tags left out. Where a name states a change or a piece, a line headed by the entry shows the natural chain unless it says otherwise.
UniProt Q7L0Q8: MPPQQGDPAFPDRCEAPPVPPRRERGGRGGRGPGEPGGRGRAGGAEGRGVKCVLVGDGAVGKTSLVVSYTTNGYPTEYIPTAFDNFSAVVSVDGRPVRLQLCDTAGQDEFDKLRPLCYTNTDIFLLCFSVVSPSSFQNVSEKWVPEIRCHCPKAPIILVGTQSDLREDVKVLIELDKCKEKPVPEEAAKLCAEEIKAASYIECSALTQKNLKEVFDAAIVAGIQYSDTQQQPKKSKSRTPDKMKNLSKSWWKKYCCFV

Target: GFP–ΔN-RhoU(48–258) (human) (UniProt Q7L0Q8)
Assay: co-IP; lysates of co-transfected COS7 cells, GFP-Trap agarose beads, 1 h at 4°C, 10 mM Tris-HCl pH 7.5, 150 mM NaCl, NP40; blots with anti-GFP and anti-Myc

binding: binds
Substance: Myc–RhoU (from UniProt Q7L0Q8-1 1-258)
